# Experimental data from PubChem BioAssay (NCATS).
# The shares of active, inactive and inconclusive entries below differ from those in the screen. Where the call is inconclusive, the potency comes from a doubtful curve fit. The source made the active and inactive calls. Calls come from the whole dose curve; as a rule, active = well fitted cell-killing curve with a large enough effect; inconclusive = small, poorly fitted or top-dose-only effect, or effect the other way; inactive = no such curve, though single readings can be large or run the other way.
# Test: Quantitative highthroughput screen to assess conditional lethalithy of NOMO1 cells grown in Human Plasma-Like Medium with dialyzed fetal bovine serum (HPLM+ds) (AID 1963878); note: nearly all actives have a fitted effect of over 35% in size
# Conditions: NOMO1 AML cells in HPLM+ds, CellTiter-Glo viability, 48 h; viability: at 45.8 µM (top of the series)
# From the text: Assay Provider: Jason Cantor Ph.D.
# Department of Biochemistry
# University of Wisconsin-Madison, Madison, WI, USA
# Chemical screening studies have identified drug sensitivities across hundreds of cancer cell lines but most putative therapeutics fail to translate. Discovery and development of drug candidates in models that more accurately reflect nutrient levels in human blood is a major challenge. Here we performed high-throughput screens in conventional versus Human Plasma-Like Medium (HPLM) to identify compounds that were "missed" when screening using the artificial culture condition. Sets of conditional anticancer compounds spanned phases of clinical development and included non-oncology drugs were assessed. […] We also traced conditional phenotypes for several chemotherapeutics to availability of HPLM-specific metabolites and confirmed others for compounds whose reported targets are encoded by nonessential genes. Our findings establish generalizable strategies for exploiting conditional lethality in HPLM to reveal therapeutic candidates and mechanisms of action in cancer cells.
# Described herein are the results of each viability screens against three cell lines: NOMO1 (an acute myeloid leukemia cell line); P12-Ichikawa (a T-cell acute lymphoblastic leukemia); and SEM (a B-cell ALL). Each assay was screened using 3 different cell culture media: homemade human plasma-Like medium with 10% dialyzed fetal bovine serum (HPLM+ds); RPMI1640 with 10% untreated FBS and 5mM glucose (RPMI+s); and RPMI1640 with 10% dialyzed fetal bovine serum and 5 mM glucose (RPMI+ds).
# PROTOCOL TABLE (as described by Inglese J, Shamu CE and Guy RK. 2007)
# SEQUENCE No. (e.g., 1, 2, 3, etc.); […] (e.g., Cells, Incubation, Reagent, etc.); VALUE and DESCRIPTION.
# 1; Cells; 5 uL; white, solid bottom 1536-well Greiner assay plate.
# 2; Compounds; 23 nL; Kalypsis pin tool (Wako USA) equipped with a 1536-well pin head to transfer to the assay plates.
# 3; Incubation; 48 hours; 37C incubation.
# 4; Reagent; 3 uL; CellTiter Glo (Promega).
# 5; Incubation; 5 min, room temperature
# 6; Detection; Luminescence, Viewlux PerkinElmer.
# NOTES (numbers refer to Sequence numbers above)
# 1. Briefly, 5 ul of cell reagent was dispensed using a Multidrop Combi Dispenser. The NOMO1 and SEM cells were plated at 500 cells/well and the P12-Ichikawa line at 1000 cells/well.
# 2. After seeding the cells, 23 nL of MIPE 4.1 library compounds (in DMSO) were added to each plate using a Kalypsys 1536 Pintool dispenser. Bortezomib at final concentration of […] and DMSO were added to each plate as positive and negative controls respectively. For each screen, MIPE 4.1 compounds were added over an eleven-point concentration range […] in 3-fold dilutions.
# 3. Each plate was covered with a stainless steel gasketed lid to prevent evaporation and incubated for 48 hour at 37C, 95% relative humidity, and 5% CO2.
# 4-5. Three microliter CellTilter-GloTM luminescent substrate mix (Promega) reagent was added to the assay plate and incubated at room temperature for 5 min.
# 6. The luminescence signal was measured using a ViewLux (PerkinElmer) multiplate reader with a 2 second exposure time per plate. Data for each compound were normalized as percent viability such that measurements for DMSO and the empty well controls in each plate were defined as 100% and 0%, respectively.
# Potency is the fitted concentration of half-maximal effect.
row,SMILES,Potency
1,C[C@]12C=CC(=O)N[C@@H]1CC[C@H]1[C@H]3CC[C@@H](C(=O)Nc4cc(C(F)(F)F)ccc4C(F)(F)F)[C@@]3(C)CC[C@@H]12,inactive
2,CNC(=O)c1ccc(Nc2cc(Nc3ccccc3S(=O)(=O)C(C)C)c3cc[nH]c3n2)nc1,"inconclusive: 16.6 µM [cytotoxic, partial curve]"
3,CCCCC[C@H](O)C=C[C@H]1[C@H](O)CC(=O)[C@H]1CC=CCCCC(=O)O,"inconclusive: 26.4 µM [cytotoxic, single point]"
4,Cn1cnc(-c2cc3nccc(Oc4ccc(NC(=S)NC(=O)Cc5ccccc5)cc4F)c3s2)c1,"inconclusive: 16.6 µM [cytotoxic, partial curve]"
5,COC(=O)Nc1nc2ccc(C(=O)c3cccs3)cc2[nH]1,"inconclusive: 0.0235 µM [cytotoxic, full curve]"
6,O=C(NCC1CN(c2ccc(N3CCOCC3=O)cc2)C(=O)O1)c1ccc(Cl)s1 (stereo not given),"inconclusive: 0.526 µM [cytotoxic, full curve]"
7,FC(F)(F)c1ccc(C=Cc2nc(COc3ccc(CCCCn4ccnn4)cc3)co2)cc1,"inconclusive: 2.09 µM [cytotoxic, full curve]"
8,CC[C@@]1(O)C(=O)OCc2c1cc1n(c2=O)Cc2cc3cc(O)ccc3nc2-1,active: 0.0833 µM
9,CC(=O)CC(c1ccccc1)c1c(O)c2ccccc2oc1=O (stereo not given),"inconclusive: 4.69 µM [rising, partial curve, poor fit]"
10,Cc1ccc(C(=O)N(CCCN)[C@@H](c2oc3cc(Cl)ccc3c(=O)c2Cc2ccccc2)C(C)C)cc1,"inconclusive: 93.5 µM [cytotoxic, single point]"
11,CN(c1ncccc1CNc1nc(Nc2ccc3c(c2)CC(=O)N3)ncc1C(F)(F)F)S(C)(=O)=O,"inconclusive: 37.2 µM [cytotoxic, single point]"
12,Cc1c(NC(=O)c2ccc(C(C)(C)C)cc2)cccc1-c1cn(C)c(=O)c(Nc2ccc(C(=O)N3CCOCC3)cc2)n1,inactive
13,C#C[C@]1(O)CC[C@@H]2[C@@H]3CCc4cc(O)ccc4[C@H]3CC[C@@]21C,"inconclusive: 13.2 µM [cytotoxic, partial curve]"
14,Nc1nc(-c2nn(Cc3ccccc3F)c3ncccc23)nc(N)c1N1CCOCC1,inactive
15,CCc1c2c(nc3ccc(OC(=O)N4CCC(N5CCCCC5)CC4)cc13)-c1cc3c(c(=O)n1C2)COC(=O)[C@]3(O)CC,"inconclusive: 2.64 µM [cytotoxic, full curve]"
16,CC[C@H](C=C[C@@H](C)[C@H]1CC[C@H]2[C@@H]3CC=C4C[C@@H](O)CC[C@]4(C)[C@@H]3CC[C@]12C)C(C)C,active: 7.24 µM
17,NC(=NCc1ccccc1)NC(=O)c1nc(Cl)c(N)nc1N,"inconclusive: 18.7 µM [cytotoxic, partial curve]"
18,CC(C=CC1=C(C)CCCC1(C)C)=CC=CC(C)=CC(=O)O,"inconclusive: 4.69 µM [cytotoxic, full curve, poor fit]"
19,Cc1ncc([N+](=O)[O-])n1CC(C)O (stereo not given),inactive
20,O=c1c(-c2ccc(O)cc2)coc2cc(O[C@@H]3O[C@H](CO)[C@H](O)[C@H](O)[C@H]3O)ccc12,"inconclusive: 14.8 µM [cytotoxic, partial curve, poor fit]"

row,SMILES,Potency
1,CCCCN(CCCC)C(=O)CN1C[C@H](c2ccc3c(c2)OCO3)[C@@H](C(=O)O)[C@@H]1c1ccc(OC)cc1,"inconclusive: 20.9 µM [cytotoxic, partial curve]"
2,CCNC(=O)CCCC=CC[C@@H]1[C@H](C=CC(O)CCc2ccccc2)[C@@H](O)C[C@@H]1O (stereo not given in full),"inconclusive: 37.2 µM [cytotoxic, single point]"
3,CN(C)c1ccc2cc(C(=O)N[C@@H](CCCN=C(N)CCl)C(=O)NCc3ccccc3)ccc2c1,active: 23.5 µM
4,CO[C@@H]1[C@@H](OC(N)=O)[C@@H](O)[C@H](Oc2ccc3c(O)c(NC(=O)c4ccc(O)c(CC=C(C)C)c4)c(=O)oc3c2C)OC1(C)C,"inconclusive: 23.5 µM [cytotoxic, single point]"
5,C[C@H](NC(=O)[C@@H](O)c1cc(F)cc(F)c1)C(=O)N[C@@H]1C(=O)N(C)c2ccccc2-c2ccccc21,inactive
6,CCN(CC)CCn1c(=O)c(Cc2ccc(OC)cc2)nc2ccccc21,inactive
7,C[C@@H]1CN(CC(=O)Nc2ccc3c(c2)Cc2cccc(-c4cc(=O)cc(N5CCOCC5)o4)c2S3)C[C@H](C)O1,"inconclusive: 4.18 µM [cytotoxic, full curve]"
8,COc1cc(NC(=O)c2ccc(-c3ccc(Cl)cc3)o2)cc(OC)c1,"inconclusive: 3.32 µM [cytotoxic, full curve]"
9,COc1cc(C(=O)NC2CCN(C)CC2)ccc1Nc1ncc2c(n1)N(C1CCCC1)CCC(=O)N2C(C)C,active: 14.8 µM
10,COc1c(C)c2c(c(O)c1CC=C(C)CCC(=O)O)C(=O)OC2,"inconclusive: 10.5 µM [cytotoxic, partial curve]"
11,N=c1ccn2c(n1)O[C@H]1[C@@H](O)[C@@H](CO)O[C@H]12,active: 1.48 µM
13,Nc1nc2c(ncn2COCCO)c(=O)[nH]1,"inconclusive: 23.5 µM [cytotoxic, single point]"
14,O=S(=O)(NCCNCC=Cc1ccc(Br)cc1)c1cccc2cnccc12,"inconclusive: 20.9 µM [cytotoxic, partial curve, poor fit]"
15,Nc1ccc(-c2ccc3ncc4ccc(=O)n(-c5cccc(C(F)(F)F)c5)c4c3c2)cn1,"inconclusive: 0.0209 µM [cytotoxic, full curve]"
16,CCOC(=O)c1ccc(OC(=O)CCCCCN=C(N)N)cc1,"inconclusive: 3.32 µM [cytotoxic, full curve]"
17,CC1(C)C(N(O)C(=O)Nc2ccc(Cl)cc2)N(c2ccc(Cl)cc2)C(=O)N1CC(=O)NN=CC=Cc1ccc([N+](=O)[O-])o1 (stereo not given),"inconclusive: 23.5 µM [cytotoxic, single point]"
18,COc1ccc(S(=O)(=O)Nc2cccnc2Nc2ccc(O)cc2)cc1,"inconclusive: 2.35 µM [cytotoxic, full curve]"
19,CC(=O)N(O)CCCCCNC(=O)CCC(=O)N(O)CCCCCNC(=O)CCC(=O)N(O)CCCCCN,"inconclusive: 0.0105 µM [cytotoxic, full curve]"
20,O=C(NC1CC1)c1cccc(-c2ccc3c(NC(=O)C4CC4)n[nH]c3c2)c1,"inconclusive: 18.7 µM [cytotoxic, partial curve]"

# Rewritten with bars between the fields: part of the list above
row | SMILES | Potency
1 | CCCCN(CCCC)C(=O)CN1C[C@H](c2ccc3c(c2)OCO3)[C@@H](C(=O)O)[C@@H]1c1ccc(OC)cc1 | inconclusive: 20.9 µM [cytotoxic, partial curve]
2 | CCNC(=O)CCCC=CC[C@@H]1[C@H](C=CC(O)CCc2ccccc2)[C@@H](O)C[C@@H]1O (stereo not given in full) | inconclusive: 37.2 µM [cytotoxic, single point]
3 | CN(C)c1ccc2cc(C(=O)N[C@@H](CCCN=C(N)CCl)C(=O)NCc3ccccc3)ccc2c1 | active: 23.5 µM
4 | CO[C@@H]1[C@@H](OC(N)=O)[C@@H](O)[C@H](Oc2ccc3c(O)c(NC(=O)c4ccc(O)c(CC=C(C)C)c4)c(=O)oc3c2C)OC1(C)C | inconclusive: 23.5 µM [cytotoxic, single point]
5 | C[C@H](NC(=O)[C@@H](O)c1cc(F)cc(F)c1)C(=O)N[C@@H]1C(=O)N(C)c2ccccc2-c2ccccc21 | inactive
6 | CCN(CC)CCn1c(=O)c(Cc2ccc(OC)cc2)nc2ccccc21 | inactive
7 | C[C@@H]1CN(CC(=O)Nc2ccc3c(c2)Cc2cccc(-c4cc(=O)cc(N5CCOCC5)o4)c2S3)C[C@H](C)O1 | inconclusive: 4.18 µM [cytotoxic, full curve]
8 | COc1cc(NC(=O)c2ccc(-c3ccc(Cl)cc3)o2)cc(OC)c1 | inconclusive: 3.32 µM [cytotoxic, full curve]
9 | COc1cc(C(=O)NC2CCN(C)CC2)ccc1Nc1ncc2c(n1)N(C1CCCC1)CCC(=O)N2C(C)C | active: 14.8 µM
10 | COc1c(C)c2c(c(O)c1CC=C(C)CCC(=O)O)C(=O)OC2 | inconclusive: 10.5 µM [cytotoxic, partial curve]
